Experimental data from patent publication US11999746B2, “Compounds” (GlaxoSmithKline Intellectual Property Development Limited, priority 2014, dated 2024).
Some entries share one result that the patent states for a list of compounds.

Biological target: Recombinant human PLA2 VIIB (Novel Serine Dependent Lipase, NSDL) (Homo sapiens, UniProt Q99487)
Test: (2a) PLA2 VIIB assay (PED6 substrate)
Assay type: biochemical
Conditions: Examples 1-9, 11-105, 107-193, 203-259 and 413-430 were tested here

Selectivity between human recombinant Lp-PLA2 and PLA2 VIIB, at least 100 fold:
O=c1nc(OCc2cccc(F)c2F)cc2n1C[C@H]1COCCN21 [Example E127, (S)-7-((2,3-difluorobenzyl)oxy)-3,4,11,11a-tetrahydropyrimido[6′,1′:2,3]imidazo[5,1-c][1,4] oxazin-9(1H)-one]
O=c1nc(OCc2cccc(F)c2)cc2n1C[C@H]1COCCN21 [Example E128, (S)-7-((3-fluorobenzyl)oxy)-3,4,11,11a-tetrahydropyrimido[6′,1′:2,3]imidazo[5,1-c][1,4] oxazin-9(1H)-one]
O=c1nc(OCc2cc(F)cc(F)c2)cc2n1C[C@H]1COCCN21 [Example E129, (S)-7-((3,5-difluorobenzyl)oxy)-3,4,11,11a-tetrahydropyrimido[6′,1′:2,3]imidazo[5,1-c][1,4] oxazin-9(1H)-one]
O=c1nc(OCc2ccc(F)cc2F)cc2n1C[C@@H]1COCCN21 [Example E130, (R)-7-((2,4-difluorobenzyl)oxy)-3,4,11,11a-tetrahydropyrimido[6′,1′:2,3]imidazo[5,1-c][1,4] oxazin-9(1H)-one]
O=c1nc(OCc2cccc(F)c2F)cc2n1C[C@@H]1COCCN21 [Example E131, (R)-7-((2,3-difluorobenzyl)oxy)-3,4,11,11a-tetrahydropyrimido[6′,1′:2,3]imidazo[5,1-c][1,4] oxazin-9(1H)-one]
O=c1nc(OCc2cccc(F)c2)cc2n1C[C@@H]1COCCN21 [Example E132, (R)-7-((3-fluorobenzyl)oxy)-3,4,11,11a-tetrahydropyrimido[6′,1′:2,3]imidazo[5,1-c][1,4] oxazin-9(1H)-one]
O=c1nc(OCc2cc(F)c(Oc3ccnc(C(F)(F)F)c3)c(F)c2)cc2n1C[C@@H]1CCOCN21 [Example E134, (S)-3-((3,5-difluoro-4-((2-(trifluoromethyl)pyridin-4-yl)oxy)benzyl)oxy)-8,9,9a,10-tetrahydropyrimido[6′,1′:2,3]imidazo[1,5-c][1,3]oxazin-1(6H)-one]
O=c1nc(OCc2cc(F)c(Oc3ccnc(C(F)(F)F)c3)c(F)c2)cc2n1C[C@H]1CCOCN21 [Example E135, (R)-3-((3,5-difluoro-4-((2-(trifluoromethyl)pyridin-4-yl)oxy)benzyl)oxy)-8,9,9a,10-tetrahydropyrimido[6′,1′:2,3]imidazo[1,5-c][1,3]oxazin-1(6H)-one]
Cn1cc(Oc2c(F)cc(COc3cc4n(c(=O)n3)C[C@@H]3CCOCN43)cc2F)cn1 [Example E136, (S)-3-((3,5-difluoro-4-((1-methyl-1H-pyrazol-4-yl)oxy)benzyl)oxy)-8,9,9a,10-tetrahydropyrimdo[6′,1′:2,3]imidazo[1,5-c][1,3]oxazin-1(6H)-one]
Cn1cc(Oc2c(F)cc(COc3cc4n(c(=O)n3)C[C@H]3CCOCN43)cc2F)cn1 [Example E137, (R)-3-((3,5-difluoro-4-((1-methyl-1H-pyrazol-4-yl)oxy)benzyl)oxy)-8,9,9a,10-tetrahydropyrimido[6′,1′:2,3]imidazo[1,5-c][1,3]oxazin-1(6H)-one]
O=c1nc(OCc2cccc(F)c2)cc2n1C[C@@H]1CCOCN21 [Example E138, (S)-3-((3-fluorobenzyl)oxy)-8,9,9a,10-tetrahydropyrimido[6′,1′:2,3]imidazo[1,5-c][1,3] oxazin-1(6H)-one]
O=c1nc(OCc2cc(F)c(F)c(F)c2)cc2n1C[C@@H]1CCOCN21 [Example E139, (S)-3-((3,4,5-trifluorobenzyl)oxy)-8,9,9a,10-tetrahydropyrimido[6′,1′:2,3]imidazo[1,5-c][1,3] oxazin-1(6H)-one]
O=c1nc(OCc2cc(F)c(OC3(CCF)CC3)c(F)c2)cc2n1C[C@@H]1CCOCN21 [Example E140, (S)-3-((3,5-difluoro-4-(1-(2-fluoroethyl)cyclopropoxy)benzyl)oxy)-8,9,9a,10-tetrahydropyrimido[6′,1′:2,3]imidazo[1,5-c][1,3]oxazin-1(6H)-one]
O=c1nc(OCc2cc(F)c(Oc3ccnc(C(F)(F)F)c3)c(F)c2)cc2n1C[C@H]1COCN21 [Example E141, (S)-6-((3,5-difluoro-4-((2-(trifluoromethyl)pyridin-4-yl)oxy)benzyl)oxy)-10,10a-dihydro-1H-oxazolo[3′,4′:3,4]imidazo[1,2-c]pyrimidin-8(3H)-one]
O=c1nc(OCc2cc(F)c(Oc3ccnc(C(F)(F)F)c3)c(F)c2)cc2n1C[C@@H]1COCN21 [Example E142, (R)-6-((3,5-difluoro-4-((2-(trifluoromethyl)pyridin-4-yl)oxy)benzyl)oxy)-10,10a-dihydro-1H-oxazolo[3′,4′:3,4]imidazo[1,2-c]pyrimidin-8(3H)-one]
Cn1cc(Oc2c(F)cc(COc3cc4n(c(=O)n3)C[C@H]3COCN43)cc2F)cn1 [Example E143, (S)-6-((3,5-difluoro-4-((1-methyl-1H-pyrazol-4-yl)oxy)benzyl)oxy)-10,10a-dihydro-1H-oxazolo[3′,4′:3,4]imidazo[1,2-c]pyrimidin-8(3H)-one]
Cn1cc(Oc2c(F)cc(COc3cc4n(c(=O)n3)C[C@@H]3COCN43)cc2F)cn1 [Example E144, (R)-6-((3,5-difluoro-4-((1-methyl-1H-pyrazol-4-yl)oxy)benzyl)oxy)-10,10a-dihydro-1H-oxazolo[3′,4′:3,4]imidazo[1,2-c]pyrimidin-8(3H)-one]
O=c1nc(OCc2ccc(Cl)c(F)c2)cc2n1C[C@H]1COCN21 [Example E145, (S)-6-((4-chloro-3-fluorobenzyl)oxy)-10,10a-dihydro-1H-oxazolo[3′,4′:3,4]imidazo[1,2-c] pyrimidin-8(3H)-one]
O=c1nc(OCc2cc(F)c(F)c(F)c2)cc2n1C[C@H]1COCN21 [Example E146, (S)-6-((3,4,5-trifluorobenzyl)oxy)-10,10a-dihydro-1H-oxazolo[3′,4′:3,4]imidazo[1,2-c] pyrimidin-8(3H)-one]
O=c1nc(OCc2cc(F)cc(F)c2)cc2n1C[C@H]1COCN21 [Example E147, (S)-6-((3,5-difluorobenzyl)oxy)-10,10a-dihydro-1H-oxazolo[3′,4′:3,4]imidazo[1,2-c] pyrimidin-8(3H)-one]
O=c1nc(OCc2cccc(F)c2)cc2n1C[C@H]1COCN21 [Example E148, (S)-6-((3-fluorobenzyl)oxy)-10,10a-dihydro-1H-oxazolo[3′,4′:3,4]imidazo[1,2-c]pyrimidin-8(3H)-one]
Cc1ccc(Oc2c(F)cc(COc3cc4n(c(=O)n3)C[C@H]3COCN43)cc2F)cn1 [Example E149, (S)-6-((3,5-difluoro-4-((6-methylpyridin-3-yl)oxy)benzyl)oxy)-10,10a-dihydro-1H-oxazolo[3′,4′:3,4]imidazo[1,2-c]pyrimidin-8(3H)-one]
CCCn1cc(Oc2c(F)cc(COc3cc4n(c(=O)n3)C[C@H]3COCN43)cc2F)cn1 [Example E150, (S)-6-((3,5-difluoro-4-((1-propyl-1H-pyrazol-4-yl)oxy)benzyl)oxy)-10,10a-dihydro-1H-oxazolo[3′,4′:3,4]imidazo[1,2-c]pyrimidin-8(3H)-one]
O=c1nc(OCc2cc(F)c(Oc3cnn(C(F)(F)F)c3)c(F)c2)cc2n1C[C@H]1COCN21 [Example E151, (S)-6-((3,5-difluoro-4-((1-(trifluoromethyl)-1H-pyrazol-4-yl)oxy)benzyl)oxy)-10,10a-dihydro-1H-oxazolo[3′,4′:3,4]imidazo[1,2-c]pyrimidin-8(3H)-one]
Cc1ncc(Oc2c(F)cc(COc3cc4n(c(=O)n3)C[C@H]3COCN43)cc2F)cn1 [Example E152, (S)-6-((3,5-difluoro-4-((2-methylpyrimidin-5-yl)oxy)benzyl)oxy)-10,10a-dihydro-1H-oxazolo[3′,4′:3,4]imidazo[1,2-c]pyrimidin-8(3H)-one]
O=c1nc(OCc2cc(F)c(Oc3cnn(C(F)(F)F)c3)c(F)c2)cc2n1C[C@@H]1COCN21 [Example E154, (R)-6-((3,5-difluoro-4-((1-(trifluoromethyl)-1H-pyrazol-4-yl)oxy)benzyl)oxy)-10,10a-dihydro-1H-oxazolo[3′,4′:3,4]imidazo[1,2-c]pyrimidin-8(3H)-one]
Cc1cc(Oc2c(F)cc(COc3cc4n(c(=O)n3)C[C@@H]3COCN43)cc2F)ccn1 [Example E155, (R)-6-((3,5-difluoro-4-((2-methylpyridin-4-yl)oxy)benzyl)oxy)-10,10a-dihydro-1H-oxazolo[3′,4′:3,4]imidazo[1,2-c]pyrimidin-8(3H)-one]
CCCn1cc(Oc2c(F)cc(COc3cc4n(c(=O)n3)C[C@@H]3COCN43)cc2F)cn1 [Example E156, (R)-6-((3,5-difluoro-4-((1-propyl-1H-pyrazol-4-yl)oxy)benzyl)oxy)-10,10a-dihydro-1H-oxazolo[3′,4′:3,4]imidazo[1,2-c]pyrimidin-8(3H)-one]
